Values from PubChem BioAssay AID1053208 (Peter MacCallum Cancer Centre, 2014)
Assay: 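Find knock-downs that sensitise mouse osteosarcoma cells to doxorubicin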 (primary screen). Cell system: mouse osteosarcoma cells, early-passage culture from an engineered mouse model of fibroblastic bone tumour. Reagents: siRNA pool against mouse genes, 40 nM. Time to read-out: about 120 h (48 h before drug, then 72 h with drug). Challenge: doxorubicin 100 nM for 72 h, roughly 30-40% inhibitory dose. Measured: 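Viability read as ATP luminescence after 72 h of 100 nM doxorubicin or none, duplicate wells averaged, scaled to non-targeting siRNA, then expressed as robust z-scores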. Scale: viability z-score with doxorubicin and doxorubicin viability vs non-targeting: higher = more viable cells under doxorubicin; viability z-score without drug: higher = more viable cells with knock-down alone; z-score of drug to no-drug ratio: higher = less drug sensitisation by knock-down. Call rule: 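Called active if knock-down leaves viability unchanged without drug (z within -2 to 2) but lowers it with doxorubicin (z at or under -2)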.
In all, the deposit lists about 17,000 reagents; this is an unselected part. 788 of all reagents (4.7%) were called active. 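Calls rest on z-score classes alone; an extra cut-off of viability at most 70% of control was not applied to them.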

| gene | combined z-score class | viability z-score with doxorubicin | viability z-score without drug | z-score of drug to no-drug ratio | doxorubicin viability vs non-targeting | outcome |
| --- | --- | --- | --- | --- | --- | --- |
| D030022P06RIK | no change with or without drug | 0.45 | 0 | 0.56 | 0.98 | inactive |
| Rasgrp1 | high cell count without drug only | 1.69 | 2.02 | 0.45 | 1.09 | inactive |
| Rpl5 | low cell count with and without drug | -6.07 | -5.73 | -3.6 | 0.4 | inactive |
| Grin3a | no change with or without drug | 1.12 | -0.34 | 1.57 | 1.04 | inactive |
| Gapt | no change with or without drug | -0.79 | 1.18 | -1.46 | 0.87 | inactive |
| Dusp18 | no change with or without drug | 1.12 | 0.51 | 0.9 | 1.04 | inactive |
| Serpina3b | high cell count with and without drug | 4.05 | 2.87 | 2.02 | 1.3 | inactive |
| Tbkbp1 | low cell count with doxorubicin only | -2.36 | -1.85 | -1.24 | 0.73 | active |
| Phlda3 | no change with or without drug | 0.34 | -0.51 | 0.79 | 0.97 | inactive |
| Dspp | no change with or without drug | -0.9 | -0.17 | -0.79 | 0.86 | inactive |
| Hmx1 | no change with or without drug | 1.12 | -0.84 | 2.02 | 1.04 | inactive |
| Tenm3 | no change with or without drug | 0.9 | -0.51 | 1.46 | 1.02 | inactive |
| Phox2a | no change with or without drug | 0 | 0.17 | 0 | 0.94 | inactive |
| Tesc | no change with or without drug | 1.12 | 0.51 | 0.9 | 1.04 | inactive |
| Dnajc12 | no change with or without drug | -0.67 | 0.84 | -1.12 | 0.88 | inactive |
| Pdcd1 | no change with or without drug | -1.35 | 0.51 | -1.57 | 0.82 | inactive |
| Vmn1r76 | no change with or without drug | 0.22 | -0.17 | 0.45 | 0.96 | inactive |
| Krt18 | no change with or without drug | -0.11 | 0.34 | -0.22 | 0.93 | inactive |
| Tcea2 | no change with or without drug | 0.45 | 1.18 | -0.22 | 0.98 | inactive |
| Klhl20 | no change with or without drug | 0.67 | 0.51 | 0.45 | 1 | inactive |
| Nyap2 | no change with or without drug | 1.24 | 1.85 | 0.11 | 1.05 | inactive |
| H1f6 | no change with or without drug | -0.11 | 0.34 | -0.22 | 0.93 | inactive |
| Fpr-rs7 | no change with or without drug | -0.67 | 0.84 | -1.12 | 0.88 | inactive |
| Ninj2 | no change with or without drug | 1.12 | 0 | 1.24 | 1.04 | inactive |
| Amh | no change with or without drug | 1.46 | -0.84 | 2.36 | 1.07 | inactive |
| Polg2 | no change with or without drug | 0.11 | -0.84 | 0.9 | 0.95 | inactive |
| Abca1 | no change with or without drug | -0.11 | 1.18 | -0.79 | 0.93 | inactive |
| Ifi209 | no change with or without drug | 0.56 | -0.51 | 1.12 | 0.99 | inactive |
| Lin54 | low cell count without drug only | -0.9 | -2.02 | 0.67 | 0.86 | inactive |
| Tob1 | no change with or without drug | 0 | -0.17 | 0.22 | 0.94 | inactive |
| Clcn3 | low cell count with doxorubicin only | -2.47 | -1.69 | -1.46 | 0.72 | active |
| Or6c3 | no change with or without drug | -1.35 | -1.18 | -0.56 | 0.82 | inactive |
| Tmem222 | no change with or without drug | -1.35 | 1.18 | -2.02 | 0.82 | inactive |
| Dcakd | no change with or without drug | 0.45 | -0.84 | 1.24 | 0.98 | inactive |

Laid out differently: entries from further up.
Pdcd1
- combined z-score class: no change with or without drug
- viability z-score with doxorubicin: -1.35
- viability z-score without drug: 0.51
- z-score of drug to no-drug ratio: -1.57
- doxorubicin viability vs non-targeting: 0.82
- outcome: inactive

Vmn1r76
- combined z-score class: no change with or without drug
- viability z-score with doxorubicin: 0.22
- viability z-score without drug: -0.17
- z-score of drug to no-drug ratio: 0.45
- doxorubicin viability vs non-targeting: 0.96
- outcome: inactive

Krt18
- combined z-score class: no change with or without drug
- viability z-score with doxorubicin: -0.11
- viability z-score without drug: 0.34
- z-score of drug to no-drug ratio: -0.22
- doxorubicin viability vs non-targeting: 0.93
- outcome: inactive
